About 1,000 (71%) of roughly 1,400 compounds were called active. So high a share suggests a set chosen from earlier hits. This list was built around the results that the source calls inconclusive (neither active nor inactive); the mix of calls is not that of the screen. Calls come from the whole dose curve; as a rule, active = well fitted inhibition curve with a large enough effect; inconclusive = small, poorly fitted or top-dose-only effect; inactive = no such curve, though single readings can be large or run the other way. A potency beside an inconclusive call is a rough fit, not a confirmed value.
test: Nrf2 qHTS screen for inhibitors: Nrf2 A549 ARE-Fluc Confirmation Assay for Hit Validation; details: A549 ARE-firefly luciferase reporter, luminescence; series mostly up to 46.1 µM; activity change, negative = inhibition: at the top concentration; note: nearly all actives have a fitted effect of over 65% in size
How it was run: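 A549 ARE-Fluc cells (5000/well) rested 2 h, then exposed to compounds for 18-24 h at 37 °C, 5% CO2. CellTiter Fluor flagged cytotoxicity; BugLite luciferase luminescence then gauged Nrf2 activity, with lower signal meaning inhibition.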
% is set by controls: 0 for no effect and ±100 for the full control effect; potency is the fitted concentration of half-maximal effect.

SMILES	Potency	activity change, negative = inhibition
COc1cccc(C(=O)N(Cc2ccccc2)Cc2cc3cc4c(cc3[nH]c2=O)OCCO4)c1	inconclusive: 29.1 µM [inhibitor, single point]	
Cc1ccc(-n2c(-c3ccc(Cl)cc3)c[n+]3c2CCC3)cc1		inactive: -36.5%
O=C(NC1CCN(Cc2ccccc2)CC1)c1ccc2c(c1)[nH]c(=O)n2Cc1ccc(F)cc1	active: 9.2 µM	
CSc1ccc(CCNc2ncnc3onc(-c4ccc(Cl)cc4)c23)cc1	inconclusive: 18.4 µM [inhibitor, single point]	
O=C(CCC(=O)N1CCN(S(=O)(=O)c2ccc(Cl)cc2)CC1)NCc1cccc(C(F)(F)F)c1	active: 8.2 µM	
COc1ccc(/C=C/C(=O)NC(=S)NCCc2ccc(OC)c(OC)c2)cc1		inactive: 5.41%
CCCCOc1ccccc1NC(=O)c1scc2c1OCCO2		inactive: 6.08%
COc1ccc(CNc2ncnc3onc(C)c23)cc1	inconclusive: 6.51 µM [inhibitor, partial curve]	
CC(C)(C)OC(=O)NCCCC[C@H](NC(=O)c1nc[nH]c1C(=O)NC(c1ccccc1)c1ccccc1)C(=O)OC(C)(C)C	active: 20.6 µM	
Clc1ccc(/C=C/c2ccncc2)cc1Cl	inconclusive: 1.46 µM [inhibitor, partial curve, poor fit]	
COC(=O)c1[nH]c2c(c1C)C(=O)CC(c1cc(OC)c(OC)c(OC)c1)C2 (configuration not stated)	inconclusive: 13 µM [inhibitor, partial curve]	
COc1ccccc1-c1noc(CCC(=O)N2CCN(c3cc(C)ccc3C)CC2)n1		inactive: -25.4%
Cc1nn(C)c(C)c1CN(Cc1nc(CCC(C)C)no1)C(C)C	inconclusive: 6.51 µM [inhibitor, partial curve]	
COc1cccc(NC(=O)c2ccc(-c3nc(COc4ccc(C)cc4)c(C)o3)cc2)c1	inconclusive: 1.84 µM [inhibitor, full curve]	
CCOC(=O)N1CCC(NC(=O)c2cc(C(=O)Nc3cccc(C(F)(F)F)c3)ccc2CO)CC1	active: 16.4 µM	
CCC(NC(=O)c1cc(COc2ccc(C)nc2)on1)c1ccc(C)cc1 (configuration not stated)	inconclusive: 23.1 µM [inhibitor, single point]	
N#Cc1cccc(NC(=O)CNc2cccc(S(=O)(=O)N3CCCC3)c2)c1	inconclusive: 29.1 µM [inhibitor, single point]	
O=S(=O)(c1ccc2c(c1)OCCO2)N1CCC(c2nc3ccccc3s2)CC1		inactive: -47.9%
Cc1ccc2c(c1)N(S(=O)(=O)c1cc(-c3onc(C)c3C)ccc1C)CCO2	inconclusive: 18.4 µM [inhibitor, single point]	
O=C(CNc1cc(S(=O)(=O)N2CCCC2)ccc1OCC(F)(F)F)Nc1ccc(SC(F)F)cc1	inconclusive: 23.1 µM [inhibitor, single point]	
O=C(Nc1ccc(F)cc1)c1cc(S(=O)(=O)N2CCCCC2)cs1	active: 7.31 µM	

Molecules from the list above with an aryl thioether with sulfur outside any ring:
SMILES	Potency	activity change, negative = inhibition
CSc1ccc(CCNc2ncnc3onc(-c4ccc(Cl)cc4)c23)cc1	inconclusive: 18.4 µM [inhibitor, single point]	
O=C(CNc1cc(S(=O)(=O)N2CCCC2)ccc1OCC(F)(F)F)Nc1ccc(SC(F)F)cc1	inconclusive: 23.1 µM [inhibitor, single point]	

Following part.

SMILES	Potency	activity change, negative = inhibition
N#CCc1ccc(NC(=O)c2ccc(CN3CCc4ccccc4C3)cc2)cc1	inconclusive: 4.11 µM [inhibitor, full curve]	
Cc1cc(=O)n(CC(=O)N2CCN(c3ccccc3F)CC2)c2c1c(C)nn2C	inconclusive: 16.4 µM [inhibitor, single point]	
CCc1ccc2ncc3c(-c4ccc(F)cc4)nn(CC(=O)NC4CCCCC4)c3c2c1	inconclusive: 4.11 µM [inhibitor, single point]	
COc1ccc(S(=O)(=O)Nc2ccc(Cc3ccncc3)cc2)cc1OC	inconclusive: 16.4 µM [inhibitor, single point]	
O=S(=O)(c1ccc2ccccc2c1)N1CCC(c2nc(-c3ccncc3)no2)CC1	inconclusive: 29.1 µM [inhibitor, single point]	
COc1cccc(NC(=O)N(Cc2cn(C)c3ccccc23)C2CCCCC2)c1	inconclusive: 29.1 µM [inhibitor, single point]	
O=C1c2cccc3cc([N+](=O)[O-])cc(c23)C(=O)N1CCN1CCCC1	inconclusive: 0.731 µM [inhibitor, full curve, poor fit]	
CNC(=S)Nc1ccc(N2CCN(c3ccc(C(F)(F)F)cn3)CC2)nc1	active: 6.51 µM	
O=S(=O)(NC1CCc2ccccc21)c1ccc(S(=O)(=O)N2CCCC2)cc1 (configuration not stated)	inconclusive: 25.9 µM [inhibitor, single point]	
CN1CCc2c(OCC(=O)N3CCCc4ccccc43)cccc2C1=O	inconclusive: 1.84 µM [inhibitor, full curve, poor fit]	
CCC[n+]1c(/C=C/c2c(OC)cc(OC)cc2OC)ccc2ccccc21	active: 2.31 µM	
CCc1nnc(NC(=O)c2ccc(OCc3c(C)noc3C)c(OC)c2)s1		inactive: 14.9%
COc1ccc(C2C3=C(CC(C)(C)CC3=O)Oc3ncn(Cc4ccco4)c(=N)c32)cc1 (configuration not stated)		inactive: 8.78%
Cc1ccccc1C(=O)N1CCN(c2ccc(NC(=O)c3ccc4c(c3)OCO4)cc2)CC1	active: 7.31 µM	
O=C(/C=C/c1ccc(S(=O)(=O)N2CCOCC2)cc1)N1CCN(c2ccccc2)CC1	inconclusive: 11.6 µM [inhibitor, partial curve, poor fit]	
Cc1cc(C)cc(C(=O)Nc2ccc(-c3cn4cccnc4n3)cc2)c1	inconclusive: 2.59 µM [inhibitor, full curve]	
COc1ccc2c(c1)/C(=C\c1cccc(/C=C3/C(=O)Nc4ccc(OC)cc43)n1)C(=O)N2	inconclusive: 18.4 µM [inhibitor, single point]	
Cc1ccc(NC(=O)COc2cccnc2[N+](=O)[O-])cc1S(=O)(=O)N1CCCCC1	inconclusive: 13 µM [inhibitor, partial curve]	
Cc1ccccc1SCC(=O)N1CCN(c2ccc(C(F)(F)F)cn2)CC1	inconclusive: 20.6 µM [inhibitor, partial curve]	
O=C1N=C(N2CCC(Cc3ccccc3)CC2)S/C1=C/c1cn[nH]c1-c1ccccc1	inconclusive: 10.3 µM [inhibitor, partial curve]	
O=C(Nc1ccccc1F)Nc1ccccc1N1CCCCC1	inconclusive: 25.9 µM [inhibitor, single point]	
